The experiment concerns the target EP2 receptor (Homo sapiens, UniProt P43116). Put plainly: EP2 potency assay (cAMP TR-FRET, LANCE Ultra cAMP kit) in transfected CHO-K1 cells stimulated with PGE2 at EC80. It is filed as cell-based. The conditions noted are these: Table (V), EP2 antagonism, CHO-K1 cells expressing EP2, PGE2 at EC80. The protocol:
Compound potency was measured using a cAMP TR-FRET assay. CHO-K1 cells (ATCC) were seeded at a density of 9.75×105 in 6 cm plates, and then on the following day cell media was changed to Opti-Mem I reduced serum media (Gibco), and transfected with a plasmid for expression of the EP2 receptor (the target receptor of interest), using the FuGENE 6 Transfection reagent (Promega). After 6 hours incubation, the cell media was replaced with F12 medium supplemented with 10% FBS and 100 U/ml Pen-Strep. 24 hours after transfection, cells were harvested and seeded at a density of 3000 cells/well in a 384 well plate to perform the cAMP assay, using the LANCE Ultra cAMP assay kit (PerkinElmer). For each test compound of interest, 10 nl/well of serially diluted test compound was added to each well, resulting in a range of 10 serially diluted compound concentrations from 10000 nM to 0.038 nM, with duplicate wells for each concentration. […] Levels of TR-FRET fluorescence were measured in each well using an EnVision microplate reader (excitation wavelength=337 nm and emission wavelength=615 and 665 nm). A dose-response curve was prepared by plotting percent inhibition for each compound concentration, and then IC50 was calculated by fitting a curve to the plotted values and extrapolating the IC50 concentration. […]

By UniProt entry, the sequences of proteins in these tests, tags left out.
UniProt P43116, whole entry: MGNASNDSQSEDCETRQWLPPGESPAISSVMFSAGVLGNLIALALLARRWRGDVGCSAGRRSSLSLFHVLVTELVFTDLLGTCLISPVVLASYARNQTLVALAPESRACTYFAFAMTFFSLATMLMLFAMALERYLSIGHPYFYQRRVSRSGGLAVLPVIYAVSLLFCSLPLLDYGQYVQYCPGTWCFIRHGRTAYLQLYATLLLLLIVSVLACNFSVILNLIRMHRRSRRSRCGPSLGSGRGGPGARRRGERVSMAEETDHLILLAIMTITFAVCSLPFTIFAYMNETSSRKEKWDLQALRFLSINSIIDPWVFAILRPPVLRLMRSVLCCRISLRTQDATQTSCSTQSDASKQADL

Experimental findings from US20260234130A1, “EP2 Antagonist Compounds” (Reservoir Neuroscience, Inc., priority 2022, published 2026) are described below.

The structures given here were assigned with low confidence; some may be wrong. Bounds are passed on as bounds.

`CCOC(=O)c1ncc(CN2CCOc3c(Cl)cc(-n4ccc5cc(F)ccc54)cc3C2)cn1` came in with an IC50 of less than 100 nM.

As a reminder, the IC50 is the concentration needed to halve the response being measured. High values mean lower potency, low ones higher potency.
